Measured values reported in patent US20260226143A1.
No constants are given. Whether binding was seen depends on the method and setting. Some entries that bind do so weakly or less than the wild type.

By UniProt entry, the sequences of proteins in these tests, tags left out. Residues count along the entry.
UniProt P05067, residues 672-713: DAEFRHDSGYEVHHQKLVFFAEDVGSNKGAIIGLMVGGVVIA

Assays:
[1] = biological target: Aβ pathology (plaques) in frozen human AD brain sections (human) (UniProt P05067); assay: IHC on frozen AD brain AD 13-75 (FIG. 13); the weaker binder
[2] = biological target: Aβ pathology (plaques) in frozen human AD brain sections (human) (UniProt P05067); assay: IHC on frozen AD brain AD 13-75, 0.03-9 µg/ml; the weaker binder
[3] = biological target: Aβ pathology (plaques) in frozen human AD brain sections (human) (UniProt P05067); assay: immunohistochemistry on frozen human AD brain sections (brain AD 13-75 by the legend)
[4] = biological target: recombinant Aβ1-42 fibrils (human); assay: competition ELISA on plate-coated Aβ42 fibrils; unlabelled antibody titrated against biotinylated hBP (labelled competitor)
[5] = biological target: Aβ1-28 (human); assay: SPR (BIAcore), antibody captured by anti-human Fc, Aβ1-28 as analyte

Binder | binding [4] | also measured
BAN2401 (antibody, human IgG1, kappa, V domains shown) VH: QVELVESGGGLVQPGGSLRLSCAASGFTFSSYAMSWVRQAPGKGLEWVSAINASGTRTYYADSVKGRFTISRDNSKNTLYLQMNSLRAEDTAVYYCARGKGNTHKPYGYVRYFDVWGQGTLVTVSS VL: DIVLTQSPATLSLSPGERATLSCRASQSVSSSYLAWYQQKPGQAPRLLIYGASSRATGVPARFSGSGSGTDFTLTISSLEPEDFATYYCLQIYNMPITFGQGTKVEIKR | – | binding [1]: binds; binding [2]: binds; binding [3]: binds
h2927 (antibody, V domains shown) VH: EVQLLESGGGLVQPGGSLRLSCAASGFTFSNFGMSWVRQAPGKGLEWVASVRSGSGRTYYSDNVKGRFTISRDNSKNTLYLQMNSLRAEDTAVYYCVRYDHYTGTSDYWGQGTLVTVSS VL: DVVMTQSPLSLPVTPGEPASISCKSSQSLLDYDGKTYLNWLLQKPGQSPQRLIYKVSNRDSGVPDRFSGSGSGTDFTLKISRVEAEDVGVYYCWQGTHFPRSFGQGTKVEIK | binds | –
h49k3G (antibody, V domains shown) VH: EVQLLESGGGLVQPGGSLRLSCAASGFTFSNFGMSWVRQAPGKGLEWVASVRSGGGRTYYSDNVKGRFTISRDNSKNTLYLQMNSLRAEDTAVYYCVRYDHYSGTSDYWGQGTLVTVSS VL: DVVMTQSPLSLPVTLGEPASISCKSSQSLLDSDGKTYLNWLLQKPGQSPQRLIYKVSNRDSGVPDRFSGSGSGTDFTLKISRVEAEDVGVYYCWQGTHFPRTFGQGTKVEIK | binds | –
h2826 (antibody, V domains shown) VH: EVQLLESGGGLVQPGGSLRLSCAASGFTFSNFGMSWVRQAPGKGLEWVASVRSGSGRTYYSDNVKGRFTISRDNSKNTLYLQMNSLRAEDTAVYYCVRYDHYSGTSDYWGQGTLVTVSS VL: DVVMTQSPLSLPVTPGEPASISCKSSQSLLDYDGKTYLNWLLQKPGQSPQRLIYKVSNRDSGVPDRFSGSGSGTDFTLKISRVEAEDVGVYYCWQGTHFPRTFGQGTKVEIK | binds | –
h2831 (antibody, V domains shown) VH: EVQLLESGGGLVQPGGSLRLSCAASGFTFSNFGMSWVRQAPGKGLEWVASVRSGSGRTYYSDNVKGRFTISRDNSKNTLYLQMNSLRAEDTAVYYCVRYDHYSGTSDYWGQGTLVTVSS VL: DVVMTQSPLSLPVTLGEPASISCKSSQSLLDYDGKTYLNWLLQKPGQSPQRLIYRVTNRDTGVPDRFSGSGSGTDFTLKISRVEAEDVGVYYCWQGTHFPRSFGQGTKVEIK | – | binding [5]: binds
h2931 (antibody, V domains shown) VH: EVQLLESGGGLVQPGGSLRLSCAASGFTFSNFGMSWVRQAPGKGLEWVASVRSGSGRTYYSDNVKGRFTISRDNSKNTLYLQMNSLRAEDTAVYYCVRYDHYTGTSDYWGQGTLVTVSS VL: DVVMTQSPLSLPVTLGEPASISCKSSQSLLDYDGKTYLNWLLQKPGQSPQRLIYRVTNRDTGVPDRFSGSGSGTDFTLKISRVEAEDVGVYYCWQGTHFPRSFGQGTKVEIK | – | binding [5]: binds
h2929 (antibody, V domains shown) VH: EVQLLESGGGLVQPGGSLRLSCAASGFTFSNFGMSWVRQAPGKGLEWVASVRSGSGRTYYSDNVKGRFTISRDNSKNTLYLQMNSLRAEDTAVYYCVRYDHYTGTSDYWGQGTLVTVSS VL: DVVMTQSPLSLPVTPGEPASISCRSSQSLVDYDGKTYLNWLLQRPGQSPQRLIYKVSNRDSGVPDRFSGSGSGTDFTLKISRVEAEDVGVYYCWQGSHFPRSYGQGTKVEIK | binds | –
h2926 (antibody, V domains shown) VH: EVQLLESGGGLVQPGGSLRLSCAASGFTFSNFGMSWVRQAPGKGLEWVASVRSGSGRTYYSDNVKGRFTISRDNSKNTLYLQMNSLRAEDTAVYYCVRYDHYTGTSDYWGQGTLVTVSS VL: DVVMTQSPLSLPVTPGEPASISCKSSQSLLDYDGKTYLNWLLQKPGQSPQRLIYKVSNRDSGVPDRFSGSGSGTDFTLKISRVEAEDVGVYYCWQGTHFPRTFGQGTKVEIK | binds | –
